Results taken from paper PMC10520872.
These are yes or no findings as the source states them, for the method shown. In cells and extracts the contact can be indirect. Here binding means that the protein was enriched with, or labelled near, the bait; the list need not be complete. Where a sequence is shown, tags or fusion partners need not be part of it. Blank lines part the entries; values can stand above or below the binder they belong to.

Target: T1, Mst77F-V5 (male-specific transcript 77F, recombinant full-length with a C-terminal V5 tag) (Drosophila melanogaster) (UniProt P16909)
T1 sequence: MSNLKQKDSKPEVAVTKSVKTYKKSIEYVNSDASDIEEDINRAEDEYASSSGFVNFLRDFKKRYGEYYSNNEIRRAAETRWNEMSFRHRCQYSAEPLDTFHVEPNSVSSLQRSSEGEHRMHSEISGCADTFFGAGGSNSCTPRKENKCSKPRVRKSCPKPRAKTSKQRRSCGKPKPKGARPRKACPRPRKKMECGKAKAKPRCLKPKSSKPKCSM
Assay: affinity purification with mass spectrometry; Mst77F-V5 released from the DNA-Mst77F-V5 substrate by S-190 embryonic extract; top fractions of a 5-45% sucrose gradient (25 mM Hepes-K+ pH 7.6, 150 mM NaCl, 4 °C) immunoprecipitated with anti-V5 agarose, eluted with glycine pH 2.0; SDS-PAGE bands identified by mass spectrometry; control: S-190 only; only the target purified

- binding: binds
B1: NLP (nucleoplasmin-like protein), native, from Drosophila embryonic S-190 extract (protein, UniProt Q27415 1-152)
chain: MAEESFYGVTLTAESDSVTWDVDEDYARGQKLVIKQILLGAEAKENEFNVVEVNTPKDSVQIPIAVLKAGETRAVNPDVEFYESKVTFKLIKGSGPVYIHGHNIKDDVEVVDMEEDDEEDDVAEDEEDEHPKKRAKIENAADGKNAKNNKKK

- binding: binds
B2: NAP1 (nucleosome assembly protein 1), native, from Drosophila embryonic S-190 extract (protein, UniProt Q9W1G7 1-370)
chain: MDAPAEGHVDPESCNEIEDEKSGSDCQSMPAYMNSVMRRQYLQQMVKMLPAPVQNRIVFLKNLQLQHLNIEAQFFEDVYKLEQKYQVQYQPLFDKRREIIEGKVDPAEEKPQWKEPESSTDNEADAEHFREALSSLKSIPKDAKGIPGFWLTVFRNTAIMSEMVQPHDEPAIRKLIDISIKYDNGHSYTLEFHFDKNEYFSNSVLTKQYVLKSTVDPNDPFAFEGPEIYKCTGCTINWEKKMNLTVKTIRKKQKHKERGAVRTIVKQVPTDSFFNFFSPPEVPSDQEEVDDDSQQILATDFEIGHFLRARIIPKAVLYYTGDIVDDEDDEDEEEYDENEEDEYDDDDAPPPKGPKSAGIKKQSPNDCPNQ
